Here are results for 39 molecules from the supplement of paper PMC9015667.

SMILES strings stand for the structures. Structures can show the parent of a compound that is named as a salt. Some of the results follow. Single values are uncertain, as repeats are few or missing.

The test system of the first assay is M229P (parental melanoma line). Nature of the assay: reduction in cell viability relative to untreated/vehicle; higher = more growth inhibition. To be noted: 200 nM; 72 h.
For the molecule `CNC(=O)c1ccc2cc([C@@]3(O)CCn4cncc43)ccc2c1` [Orteronel], the “reduction in cell viability” value was less than 0%.
Same read-out and setting: to `CCN(CC)CCCCNc1ncc2c(n1)N(C)C(=O)N(c1c(Cl)c(OC)cc(OC)c1Cl)C2` belongs less than 0%.
On the same count and under the same terms, then `CCOC(=O)N1c2ccc(C(F)(F)F)cc2[C@@H](N(Cc2cc(C(F)(F)F)cc(C(F)(F)F)c2)C(=O)OC)C[C@H]1CC` [Torcetrapib], with less than 0%; and `CC(C)(C)c1[nH]cnc1/C=c1\[nH]c(=O)/c(=C/c2ccccc2)[nH]c1=O` [Plinabulin], with 38.3%; and `COc1cccc2c1C(=O)c1c(O)c3c(c(O)c1C2=O)C[C@@](O)(C(=O)CO)C[C@@H]3O[C@H]1C[C@H](N)[C@H](O[C@@H]2CCCCO2)[C@H](C)O1` [Pirarubicin], with less than 0%.
On to `COC(c1ccccc1)(c1ccccc1)[C@H](Oc1nc(C)cc(C)n1)C(=O)O` [Ambrisentan], for which the “reduction in cell viability” value is less than 0%.

A further assay deals with M229R (matched melanoma line resistant to BRAF inhibitors). The assay is described as above. To be noted: 200 nM; 72 h.
Turning to `Oc1cc2c(cc1O)[C@@H]1c3ccc(O)c(O)c3OC[C@]1(O)C2` [Hematoxylin], the “reduction in cell viability” value is less than 0%.
Consider `C[C@H]1[C@H](C)CC[C@]2(C(=O)O)CC[C@]3(C)C(=CC[C@@H]4[C@@]5(C)CC[C@H](O)C(C)(C)[C@@H]5CC[C@]43C)[C@H]12` [Ursolic acid], for which the “reduction in cell viability” value was less than 0%.
`C[C@@H](O)[C@H]1C(=O)N2C(C(=O)OCOC(=O)C(C)(C)C)=C(SC3CN(C4=NCCS4)C3)[C@H](C)[C@H]12` [Tebipenem pivoxil]: the “reduction in cell viability” value is less than 0%.
Still for that read-out and setting: to `O=C(Nc1nnc(-c2ccco2)o1)c1cc(-c2ccccc2)nc2ccccc12` belongs less than 0%; to `CCOC(=O)/C=C/[C@H](C[C@@H]1CCNC1=O)NC(=O)[C@@H](CC(=O)[C@@H](NC(=O)c1cc(C)on1)C(C)C)Cc1ccc(F)cc1` [Rupintrivir], less than 0%.
For `CC(C)CC(=O)Nc1n[nH]c2c1CN(C(=O)C1CCN(C)CC1)C2(C)C`, the “reduction in cell viability” value is less than 0%.
Same read-out and setting: to `Cc1nc(-c2ccc(OCC(C)C)c(C#N)c2)sc1C(=O)O` [Febuxostat] belongs less than 0%.
Same read-out and setting: then `O=C(NC1CC1)c1cccc(-c2ccc3c(NC(=O)C4CC4)n[nH]c3c2)c1`, with less than 0%; and `COC(=O)C1=C(C)NC(C)=C(C(=O)OCCN2CCN(C(c3ccccc3)c3ccccc3)CC2)C1c1cccc([N+](=O)[O-])c1` (stereo not given) [Manidipine dihydrochloride], with less than 0%; and `O=C1CCC(N2C(=O)c3ccccc3C2=O)C(=O)N1` (stereo not given) [Thalidomide], with less than 0%.
With `CC1(C)C(=O)N(CCN2CCC(C(=O)c3ccc(F)cc3)CC2)c2ccccc21`, the “reduction in cell viability” value was less than 0%.
On the same count and under the same terms, to `COC1=CC(c2cc3ccccc3[nH]2)=N/C1=C\c1[nH]c(C)cc1C` [Obatoclax] belongs 76.9%.
For `C[C@H]1c2cccc(O)c2C(=O)C2=C(O)[C@]3(O)C(=O)C(C(N)=O)=C(O)[C@@H](N(C)C)[C@@H]3[C@@H](O)[C@@H]21` [Doxycycline], the “reduction in cell viability” value is less than 0%.
The same measure, in the same setting: then `Cc1cn([C@H]2O[C@@H](CO)[C@H](O)[C@H]2F)c(=O)[nH]c1=O` [Clevudine], with less than 0%; and `Cc1nc(Nc2ncc(C(=O)Nc3c(C)cccc3Cl)s2)cc(N2CCN(CCO)CC2)n1` [Dasatinib], with 13.3%.
The same measure, in the same setting: then `CC[N+](CC)(CC)CCOc1cccc(OCC[N+](CC)(CC)CC)c1OCC[N+](CC)(CC)CC` [Gallamine triethiodide], with less than 0%.
On the same count and under the same terms, to `Fc1ccc(C(c2ccc(F)cc2)N2CCN(C/C=C/c3ccccc3)CC2)cc1` [Flunarizine] belongs less than 0%; to `Cc1ccc(S(=O)(=O)OCC(=O)Nc2ccc(C(=O)O)c(O)c2)cc1`, less than 0%; to `Clc1ccc(C2(c3ccc(-c4cn[nH]c4)cc3)CCNCC2)cc1`, 14.9%.
In the case of `CC(=O)O[C@@H]1[C@@H](OC(C)=O)[C@@H](O)[C@H](Oc2c(-c3ccc(O)cc3)oc3cc(O)cc(O)c3c2=O)O[C@H]1C`, the “reduction in cell viability” value is less than 0%.
On the same count and under the same terms, then `CC(C)(O)CC(=O)NCCn1ccc2ncnc(Nc3ccc(Oc4cccc(C(F)(F)F)c4)c(Cl)c3)c21`, with less than 0%; and `NS(=O)(=O)c1cc2c(cc1Cl)NCNS2(=O)=O` [Hydrochlorothiazide], with less than 0%; and `C[C@@H]1COC(Nc2ccc3ncnc(Nc4ccc(OCc5nccs5)c(Cl)c4)c3c2)=N1` [Varlitinib tosylate], with less than 0%.
As for `N#C[C@@H]1C[C@@H]2C[C@@H]2N1C(=O)[C@@H](N)C12CC3CC(CC(O)(C3)C1)C2` [Saxagliptin], the “reduction in cell viability” value is less than 0%.
On to `COc1ccc(-c2nc3cc(C4=NNC(=O)CC4C)ccc3[nH]2)cc1` (stereo not given) [Pimobendan hydrochloride], for which the “reduction in cell viability” value was less than 0%.
With `COc1ccc(-c2ccc3c(N4CCOC[C@@H]4C)nc(N4CCOC[C@@H]4C)nc3n2)cc1CO`, the “reduction in cell viability” value stood at 43.2%.
As for `CC[C@H](CC#N)OC(=O)N[C@@H](C)c1cccc(NC(=O)Nc2ccc(-c3cnco3)c(OC)c2)c1`, the “reduction in cell viability” value was found to be 8.86%.
Turning to `Oc1ccc(-c2nc(-c3ccc(F)cc3)c(-c3ccncc3)[nH]2)cc1`, the “reduction in cell viability” value was less than 0%.
Consider `Fc1cc(-c2cccc3ncc(-c4cnn(C5CCNCC5)c4)nc23)cc(F)c1CN1CCOCC1`, for which the “reduction in cell viability” value is less than 0%.
The same measure, in the same setting: to `c1ccc(-c2oc3ncnc(NC[C@@H]4CCCO4)c3c2-c2ccccc2)cc1` belongs less than 0%; to `CS(=O)(=O)N(Cc1ccco1)C[C@@H](O)Cn1c2ccccc2c2ccccc21`, less than 0%; to `Cn1cc(-c2ccncc2)c(-c2ccc(OCc3ccc4ccccc4n3)cc2)n1`, less than 0%.
On the same count and under the same terms, to `CC(C)CN(C[C@@H](O)[C@H](Cc1ccccc1)NC(=O)O[C@H]1CCOC1)S(=O)(=O)c1ccc(N)cc1` [Amprenavir] belongs less than 0%; to `CNC(=O)c1ccc2cc([C@@]3(O)CCn4cncc43)ccc2c1` [Orteronel], less than 0%; to `CCN(CC)CCCCNc1ncc2c(n1)N(C)C(=O)N(c1c(Cl)c(OC)cc(OC)c1Cl)C2`, less than 0%.
Still for that read-out and setting: to `CCOC(=O)N1c2ccc(C(F)(F)F)cc2[C@@H](N(Cc2cc(C(F)(F)F)cc(C(F)(F)F)c2)C(=O)OC)C[C@H]1CC` [Torcetrapib] belongs less than 0%; to `CC(C)(C)c1[nH]cnc1/C=c1\[nH]c(=O)/c(=C/c2ccccc2)[nH]c1=O` [Plinabulin], 55.3%.
As for `COc1cccc2c1C(=O)c1c(O)c3c(c(O)c1C2=O)C[C@@](O)(C(=O)CO)C[C@@H]3O[C@H]1C[C@H](N)[C@H](O[C@@H]2CCCCO2)[C@H](C)O1` [Pirarubicin], the “reduction in cell viability” value is less than 0%.
The same measure, in the same setting: to `COC(c1ccccc1)(c1ccccc1)[C@H](Oc1nc(C)cc(C)n1)C(=O)O` [Ambrisentan] belongs less than 0%.
